# From PubChem BioAssay (NCATS)
# The shares of active, inactive and inconclusive entries below differ from those in the screen. Where the call is inconclusive, the potency comes from a doubtful curve fit. Activity calls are given as the source filed them. The call rests on the fitted dose curve; in most records, active means well fitted cell-killing curve with a large enough effect; inconclusive means small, poorly fitted or top-dose-only effect, or effect the other way; inactive means no such curve, though single readings can be large or run the other way.
# Assay: Quantitative High-Throughput drug screen in 47 multiple myeloma cell lines against the NCATS MIPE library collection: KMM1_JCRB cell viability assay (AID 1918960); further: nearly all actives have a fitted effect of over 30% in size
# Details: KMM1 myeloma viability, CellTiter-Glo ATP luminescence, 48 h; series mostly up to 45.8 µM
# Summary of the method: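 ATP readout (CellTiter-Glo), 48 h drug incubation, 37 °C/5% CO2, 500 cells per well; normalisation to DMSO (100%) and media-only (0%) controls.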
# Potency means the concentration at half of the fitted maximal effect.
row,Structure (SMILES),Potency
1,CCC(=C(c1ccc(O)cc1)c1ccc(OCCNC)cc1)c1ccccc1,"inconclusive: 37200 nM [cytotoxic, single point]"
2,NCCCC(N)(C(=O)O)C(F)F (stereo not given),"inconclusive: 13.2 nM [rising, full curve, poor fit]"
3,NS(=O)(=O)c1cc(Cl)c(Cl)c(S(N)(=O)=O)c1,"inconclusive: 118 nM [rising, full curve, poor fit]"
4,COc1cc2ncnc(Nc3ccc(F)c(Cl)c3)c2cc1NC(=O)C=CCN1CCCCC1,active: 8330 nM
5,C=CC[C@@H]1C=C(C)C[C@H](C)C[C@H](OC)[C@H]2O[C@@](O)(C(=O)C(=O)N3CCCC[C@H]3C(=O)O[C@H](C(C)=C[C@@H]3CC[C@H](O)[C@H](OC)C3)[C@@H](C)[C@@H](O)CC1=O)[C@@H](C)C[C@@H]2OC,active: 2090 nM
6,Cc1c(CN2CCN(S(C)(=O)=O)CC2)sc2c(N3CCOCC3)nc(-c3cnc(N)nc3)nc12,"inconclusive: 26.4 nM [cytotoxic, full curve]"
7,CC(NCCc1ccc(O)cc1)C(O)c1ccc(O)cc1 (stereo not given),active: 132 nM
8,Nc1ccc(C(=O)c2cc3c(ccc4ccccc43)[nH]2)cc1,"inconclusive: 1320 nM [cytotoxic, partial curve, poor fit]"
9,N#CC(=C(N)Sc1ccc(N)cc1)c1ccccc1C(F)(F)F,"inconclusive: 235 nM [cytotoxic, full curve, poor fit]"
10,O=C(CN1C(=O)C2(CCCC2)NC[C@H]1c1cc(F)cc(F)c1)Nc1ccc2c(c1)C[C@@]1(C2)C(=O)Nc2ncccc21,"inconclusive: 2090 nM [cytotoxic, partial curve, poor fit]"

# Pulled one by one from the list above:
row,Structure (SMILES),Potency
8,Nc1ccc(C(=O)c2cc3c(ccc4ccccc43)[nH]2)cc1,"inconclusive: 1320 nM [cytotoxic, partial curve, poor fit]"
7,CC(NCCc1ccc(O)cc1)C(O)c1ccc(O)cc1 (stereo not given),active: 132 nM
